Laboratory results: paper PMC5611679

By UniProt entry, the sequences of proteins in these tests, tags left out. Where a name states a change or a piece, a line headed by the entry shows the natural chain unless it says otherwise.
UniProt A0A097IC64: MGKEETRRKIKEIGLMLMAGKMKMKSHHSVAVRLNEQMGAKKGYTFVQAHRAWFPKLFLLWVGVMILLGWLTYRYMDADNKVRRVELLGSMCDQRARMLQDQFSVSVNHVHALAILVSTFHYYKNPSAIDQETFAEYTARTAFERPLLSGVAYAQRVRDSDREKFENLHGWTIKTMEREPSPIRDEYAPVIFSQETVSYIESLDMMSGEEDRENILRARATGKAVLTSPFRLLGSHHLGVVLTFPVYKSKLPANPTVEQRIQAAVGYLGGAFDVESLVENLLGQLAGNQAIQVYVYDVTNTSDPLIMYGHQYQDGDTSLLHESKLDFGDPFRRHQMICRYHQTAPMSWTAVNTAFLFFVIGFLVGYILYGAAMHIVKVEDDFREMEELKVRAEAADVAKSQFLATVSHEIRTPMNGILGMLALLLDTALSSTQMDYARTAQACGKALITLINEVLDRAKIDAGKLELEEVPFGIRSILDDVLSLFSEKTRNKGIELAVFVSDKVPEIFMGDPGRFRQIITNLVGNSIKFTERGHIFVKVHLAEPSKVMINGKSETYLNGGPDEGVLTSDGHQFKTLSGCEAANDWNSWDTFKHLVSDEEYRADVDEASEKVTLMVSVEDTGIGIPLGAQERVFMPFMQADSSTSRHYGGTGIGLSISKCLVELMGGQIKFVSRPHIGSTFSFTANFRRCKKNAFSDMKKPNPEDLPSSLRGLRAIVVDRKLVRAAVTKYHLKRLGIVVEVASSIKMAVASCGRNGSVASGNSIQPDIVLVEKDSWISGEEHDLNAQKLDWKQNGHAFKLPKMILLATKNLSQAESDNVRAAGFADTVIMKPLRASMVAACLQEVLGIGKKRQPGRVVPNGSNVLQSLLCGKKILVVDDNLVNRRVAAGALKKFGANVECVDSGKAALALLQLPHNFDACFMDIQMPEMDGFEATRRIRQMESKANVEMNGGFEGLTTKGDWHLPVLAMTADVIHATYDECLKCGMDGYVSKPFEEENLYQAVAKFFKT

Columns and labels:
Test in all cases: split reporter; BiFC in transiently co-transformed C. roseus cells (particle bombardment); MdCHK-YFP^N and MdCHK-YFP^C fusions, both combinations; triplicates with three independent plasmid clones
[1] = target: Malus domestica CHASE-containing histidine kinase 4a (MdCHK4a) (Malus domestica)
[2] = target: Malus domestica CHASE-containing histidine kinase 4b (MdCHK4b) (Malus domestica)
[3] = target: Malus domestica CHASE-containing histidine kinase 2 (MdCHK2) (Malus domestica)

With “Malus domestica CHASE-containing histidine kinase 2 (MdCHK2) (from UniProt A0A097IC59) (receptor)” the binding [1] was “binds” and the binding [2] was “binds”.

“Malus domestica CHASE-containing histidine kinase 3a (MdCHK3a) (from UniProt A0A097IC83) (receptor)” was tested, and the binding [3] was “binds”, the binding [1] was “binds” and the binding [2] was “binds”.

In the case of “Malus domestica CHASE-containing histidine kinase 3b (MdCHK3b) (from UniProt A0A097IC99) (receptor)”, the binding [3] is reported as “binds”, the binding [1] is reported as “binds” and the binding [2] is reported as “binds”.

In the case of “Malus domestica CHASE-containing histidine kinase 4a (MdCHK4a) (from UniProt A0A097IC64) (receptor)”, the binding [2] is reported as “binds”.

No constants are given. Whether binding was seen depends on the method and setting. In cells and extracts the contact can be indirect. Binding calls can cover weak binding; strength is not graded here.
